US20220041744A1
These are yes or no findings as the source states them, for the method shown. Some binding calls cover weakened binding; strength is not graded here.

Target: T1, human recombinant soluble CD73 protein (human) (UniProt P21589)
T1 sequence: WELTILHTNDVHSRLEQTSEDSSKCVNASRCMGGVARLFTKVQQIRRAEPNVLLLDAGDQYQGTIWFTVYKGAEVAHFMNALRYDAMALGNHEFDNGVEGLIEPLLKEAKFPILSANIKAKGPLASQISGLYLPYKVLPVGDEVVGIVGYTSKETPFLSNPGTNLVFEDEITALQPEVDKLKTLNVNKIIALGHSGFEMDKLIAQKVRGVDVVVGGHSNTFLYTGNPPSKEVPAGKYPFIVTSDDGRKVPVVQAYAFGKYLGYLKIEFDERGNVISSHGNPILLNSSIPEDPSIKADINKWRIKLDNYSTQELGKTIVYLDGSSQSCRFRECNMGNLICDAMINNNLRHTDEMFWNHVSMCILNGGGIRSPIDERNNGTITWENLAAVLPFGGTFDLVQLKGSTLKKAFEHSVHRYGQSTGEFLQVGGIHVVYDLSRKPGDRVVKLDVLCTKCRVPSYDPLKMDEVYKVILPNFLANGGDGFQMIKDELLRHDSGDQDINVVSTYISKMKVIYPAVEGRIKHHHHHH
Test: SPR

B1: H2L0 (antibody, human IgG1, V domains shown)
VH: QIQLVQSGAEVKKPGASVKVSCKASGYAFTSYNMYWVRQAPGQSLEWMGYIDPYNGGSSYNLTFKGRVTITVDKSASTAYMELSSLRSEDTAVYYCARGYGNYKAWFAYWGQGTLVTVSS
VL: DIQMTQSPSSLSASVGDRVTITCKASQSVSNDVAWYQQKPGKAPKLLIYYASTRYTGVPSRFSGSGSGTDFTFTISSLQPEDIATYYCQQDYSSLTFGQGTKLEIK
B1 was tested, and the binding was “binds”.
